The values below come from PubChem BioAssay AID2685 (National Center for Advancing Translational Sciences (NCATS), 2010).

The assay in a line: qHTS Assay for Lipid Storage Modulators in Drosophila S3 Cells.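 On cell number change: cells counted by Cell Tracker Red CMTPX staining in the red channel.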 As to conditions: BODIPY lipid droplet fluorescence, 18-24 h; for cell number change: measured here: cell count max response, cells fed with added oleic acid. In outline: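 Laser-scanning cytometry quantifies lipid droplet accumulation (500–530 nm total intensity; droplet/cell object ratio) in oleic acid-fed (400 uM added) Drosophila S3 cells treated with a concentration series. 20 uM Triacsin C defined 100% inhibition.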
Background: qHTS replaces the single test concentration by a dilution series.

Setting [1] is: measured here: cell number channel AC50, cells fed with added oleic acid.
Where [2] appears, read: measured here: lipid fluorescence (Fed channel) AC50, cells fed with added oleic acid.

Some of the results follow. These are further read-outs of the screen, such as a control signal, another cell line or another target. No call is given for them. The list favours compounds with an active or inconclusive main result. The note in brackets gives the kind of curve behind each potency; many fits are weak.

In general, AC50 refers to the midpoint of the concentration-response curve, whichever way the signal moves. Higher therefore signals weaker potency.

In the case of `CCN(C(=O)COC(=O)c1c(C)nsc1NC)c1ccccc1`, the cell number change turned out to be 35.4%. Besides, the half-maximal activity concentration (AC50) under setting [1] is 7.31 µM [rising, partial curve, poor fit]. Also, under setting [2], the concentration at half-maximal activity (AC50) was 6.51 µM [falling, partial curve, poor fit].
`O=C(NC1CCN(C(=O)N2CCOCC2)CC1)c1ccccc1`: the cell number change was -109%. Under setting [1], the AC50 is 16.4 µM [falling, partial curve]. Further, the half-maximal activity concentration (AC50) under setting [2] was 29.1 µM [falling, partial curve].
For the compound `Cc1ccc(CCNCc2c(C(=O)O)c(C)n(-c3ccccc3)c2C)cc1`, the cell number change was -19.4%.
Still for that read-out and setting: next, `COc1ccc(C2C(C(=O)c3ccco3)=C(O)C(=O)N2CCN2CCOCC2)cc1` (stereo not drawn): 13.2%.
On to `COc1ccc(OC)c2sc(N(CCN(C)C)C(=O)/C=C/c3cccs3)nc12`, for which the concentration at half-maximal activity (AC50) is, setting by setting: under setting [1], 0.164 µM [rising, full curve, poor fit]; under setting [2], 29.1 µM [falling, single point].
Turning to `O=C(Cc1cn2ccsc2n1)Nc1ccccn1`, the cell number change was 15.7%.
Regarding `O=C(OCCCN1CCCC1)C1(c2ccccc2)CCCC1`, the cell number change was -49%. Also, the AC50 under setting [1] is 4.11 µM [falling, full curve]. Under setting [2], the half-maximal activity concentration (AC50) was 16.4 µM [falling, partial curve].
Turning to `O=C(Nc1ccc(N2CCN(C(=O)c3ccco3)CC2)cc1)c1ccc(F)cc1`, the cell number change was -15.6%. The AC50 under setting [2] is 0.184 µM [rising, full curve, poor fit].
Consider `Cc1ccc(C(=O)NNC(=S)NC(=O)COc2ccccc2)cc1`, for which the cell number change was -0.387%. Besides, under setting [2], the AC50 was 2.31 µM [falling, partial curve].
Regarding `O=C(NCCCNC(=O)c1cnccn1)c1ccc(Cl)c(Cl)c1`, the cell number change was -6.58%.
Still for that read-out and setting: under `Cc1nn(Cc2ccc(F)cc2Cl)c(C)c1[N+](=O)[O-]` stands 17.2%.
Take `CN(CC(=O)Nc1ccc(Cl)c(C(F)(F)F)c1)C(=O)Cc1cccs1`: the cell number change is 37.9%. The AC50 under setting [1] was 23.1 µM [rising, partial curve, poor fit].
Turning to `Cc1sc2nc(COC(=O)C(NC(=O)c3ccc(Cl)cc3Cl)C(C)C)[nH]c(=O)c2c1C` (stereo not drawn), the cell number change worked out at 25.3%. For the same compound, the AC50 under setting [2] was 16.4 µM [rising, single point].
Regarding `Cc1ccnc(NC(=O)CCC(=O)N(CC(=O)NCc2ccc(F)cc2)c2cccc(F)c2)c1`, the cell number change turned out to be 3.91%.
The same measure, in the same setting: under `Cc1ccc(Cl)c2sc(NC(=O)C3=COCCO3)nc12` stands -18.1%; under `Cc1cc(C(=O)N/N=C/c2ccc(-c3cccc(Cl)c3)o2)n[nH]1`, -27.6%.
`Cc1ccc(S(=O)(=O)Nc2ccccc2F)cc1C(=O)N1CCN(c2ccccc2O)CC1`: the cell number change is -24.2%. For the same compound, the AC50 under setting [2] is 16.4 µM [falling, partial curve].
`COC(=O)c1cc(S(=O)(=O)NCCCN2CCCC2=O)cn1C`: the cell number change was 23%. In addition, the AC50 under setting [2] is 29.1 µM [rising, single point].
Consider `Cn1c(SCC2CCCO2)nnc1-c1ccncc1` (stereo not drawn), for which the cell number change is 7.82%.
Regarding `CCOC(=O)C1C(=O)NC(N2CCN(c3ccccc3)CC2)=NC1c1ccccc1` (stereo not drawn), the cell number change is 12.8%. In addition, the half-maximal activity concentration (AC50) under setting [1] was 0.517 µM [falling, full curve, poor fit]. In addition, under setting [2], the AC50 is 16.4 µM [falling, partial curve].
For `COc1ccc(/C=C2\SC(=S)N(CCCC(=O)Nc3ccccc3C(=O)O)C2=O)cc1OC`, the cell number change is -0.54%.
For `Cc1nc(OCC(=O)c2ccc(Cl)cc2)c(C#N)c2c1COC(C)(C)C2`, the AC50 by setting is: under setting [1], 2.06 µM [rising, partial curve]; under setting [2], 9.2 µM [rising, partial curve, poor fit].
As for `Cc1cc2c3c(c1)C(C)(c1ccccc1)CC(C)(C)N3C(=O)C21C(C#N)=C(N)OC2=C1C(=O)CC(C)(C)C2` (stereo not drawn), the cell number change is -70.5%. Also, the half-maximal activity concentration (AC50) under setting [1] is 29.1 µM [falling, single point]. Besides, the AC50 under setting [2] is 25.9 µM [falling, single point].
In the case of `Cc1cc(NC(=O)CSCC(=O)N(C)Cc2ccc(Cl)cc2Cl)no1`, the cell number change was 23.6%. Besides, the half-maximal activity concentration (AC50) under setting [2] was 8.2 µM [rising, partial curve, poor fit].
For the compound `CC1C/C(=N/Nc2ccc([N+](=O)[O-])cc2[N+](=O)[O-])CC(C)(C)C1` (stereo not drawn), the cell number change was -33.3%. Besides, the AC50 under setting [1] is 23.1 µM [falling, single point]. The AC50 under setting [2] was 20.6 µM [falling, single point].
For the compound `N#Cc1ccc(CSc2nnc3ccccn23)cc1`, the cell number change was -35.7%. Under setting [1], the AC50 was 32.6 µM [falling, single point].
As to `O=C(CCn1c(=O)c2cccn2c2ccc(F)cc21)NCCc1ccccc1`, the cell number change is -14.2%. Further, the concentration at half-maximal activity (AC50) under setting [2] was 0.146 µM [falling, full curve, poor fit].
Consider `NC(=O)CN1CCOCCOCCOCCOCCOCC1`, for which the cell number change was -38.9%. In addition, the half-maximal activity concentration (AC50) under setting [1] was 18.4 µM [falling, single point].
As for `Cc1ccc(S(=O)(=O)n2nc(-n3c(C)ccc3C)c3c(F)cccc32)c2ccccc12`, the AC50 under setting [1] was 0.517 µM [rising, partial curve].
Take `Cn1nc([N+](=O)[O-])nc1Sc1nnc(-c2ccccc2)o1`: the cell number change is -40.3%. For the same compound, the AC50 under setting [2] was 23.1 µM [falling, single point].
Take `Cc1ccc(N2C(=O)N(CC(=O)Nc3ccccc3C)C(=O)C2C)cc1` (stereo not drawn): the cell number change is -24.6%.
Same read-out and setting: under `CCOC(=O)C1=C(CNCc2ccc(C)cc2)NC(=O)NC1c1ccc(OC)cc1` (stereo not drawn) stands -6.28%.
In the case of `Cc1ccc(S(=O)(=O)N2CCN(C(=O)c3ccccc3)C2C(C)C)cc1` (stereo not drawn), the AC50 under setting [1] is 0.259 µM [falling, full curve, poor fit].
Still for that read-out and setting: under `COC(=O)C(=C/C=C/c1ccco1)C(=O)OC` stands 0.103 µM [falling, partial curve, poor fit].
Regarding `Cc1nn(-c2ccccc2)c2sc(C(=O)OCc3nnc(-c4ccccc4)o3)cc12`, the cell number change worked out at 2.21%. Moreover, the AC50 under setting [1] was 1.46 µM [rising, full curve]. Moreover, the concentration at half-maximal activity (AC50) under setting [2] was 1.3 µM [rising, partial curve].
Consider `Cc1ccc(Cl)c2c1NC(=O)C2(O)CC(=O)c1ccc(F)cc1` (stereo not drawn), for which the cell number change stood at 6.19%.
Still for that read-out and setting: next, `O=C(Nc1ncc(C(F)(F)F)cc1Cl)c1ccc(S(=O)(=O)N2CCOCC2)cc1`: 4.47%.
With `Cc1ccc(C(=O)Nc2ccc(NC(=O)c3cccs3)cc2)c(C)c1`, the cell number change is 297%. Further, under setting [1], the AC50 is 29.1 µM [rising, partial curve]. Moreover, the half-maximal activity concentration (AC50) under setting [2] is 29.1 µM [falling, single point].
With `CCN(C(=O)COC(=O)c1ccc2[nH]c3c(c2c1)CCCC3)C1CCS(=O)(=O)C1` (stereo not drawn), the cell number change was -26.8%. Moreover, under setting [2], the concentration at half-maximal activity (AC50) is 29.1 µM [falling, single point].
As to `O=C(CCCn1ncn2c(cc3occc32)c1=O)N1CCc2ccccc2C1`, the cell number change is -34.7%. For the same compound, under setting [1], the half-maximal activity concentration (AC50) is 13 µM [falling, single point]. Under setting [2], the AC50 is 20.6 µM [falling, single point].
Turning to `CCC(C)/C(C)=N/NC(=O)c1ccc(CSc2nc3ccccc3s2)cc1` (stereo not drawn), the cell number change stood at 34.4%. Besides, the AC50 under setting [1] is 16.4 µM [rising, single point]. In addition, the concentration at half-maximal activity (AC50) under setting [2] was 29.1 µM [rising, partial curve].
On to `CC(=O)/C(=N/Nc1ccccc1Cl)Sc1nnc(C(O)c2ccccc2)n1-c1ccccc1` (stereo not drawn), for which the cell number change was found to be 1.18%. Further, the AC50 under setting [2] is 18.4 µM [rising, partial curve].
In the case of `CCCC(c1nnnn1C(C)(C)C)N1CCN(Cc2ccccc2)CC1` (stereo not drawn), the cell number change was determined as 21%. In addition, the AC50 under setting [2] is 5.8 µM [rising, partial curve, poor fit].
With `O=C(c1ccc([N+](=O)[O-])cc1[N+](=O)[O-])N1CCc2ccccc21`, the cell number change is -11.8%.
Regarding `CC(C)CN(C(=O)c1cccc([N+](=O)[O-])c1)c1c(N)n(CC(C)C)c(=O)[nH]c1=O`, the cell number change was determined as 34.2%. The concentration at half-maximal activity (AC50) under setting [1] is 29.1 µM [rising, single point].
On to `C[C@H](NC(=O)NCCc1ccccc1)C(=O)O`, for which the cell number change was -33.2%. Besides, the half-maximal activity concentration (AC50) under setting [1] is 32.6 µM [falling, partial curve, poor fit]. Besides, under setting [2], the half-maximal activity concentration (AC50) is 0.92 µM [rising, full curve, poor fit].
As for `CC(OC(=O)/C(C#N)=C/c1ccc(N(C)C)cc1)C(=O)NCc1ccco1` (stereo not drawn), the cell number change was found to be 46.9%. In addition, the concentration at half-maximal activity (AC50) under setting [1] is 8.2 µM [rising, partial curve].
On to `CCN(Cc1nc2ccccc2c(=O)[nH]1)C(=O)COc1ccccc1Cc1ccccc1`, for which the cell number change is -35.3%. Besides, the AC50 under setting [1] was 16.4 µM [falling, single point]. In addition, the AC50 under setting [2] was 16.4 µM [falling, single point].
With `CCn1ncc2c(OCc3ccc(C#N)cc3)cc(C)nc21`, the cell number change was 11.9%. The concentration at half-maximal activity (AC50) under setting [2] was 29.1 µM [rising, single point].
Turning to `COc1ccc(C(CNC(=O)c2cccc(S(=O)(=O)N3CCCC3)c2)N2CCCC2)cc1` (stereo not drawn), the cell number change was 25.9%. Further, under setting [2], the half-maximal activity concentration (AC50) was 2.91 µM [rising, full curve, poor fit].
As to `CC(C)CN1C(=O)c2ccc(C(=O)NCc3ccc4c(c3)OCO4)cc2C1=O`, the cell number change is 10%. In addition, the half-maximal activity concentration (AC50) under setting [1] was 1.46 µM [rising, partial curve, poor fit]. In addition, the AC50 under setting [2] was 0.0146 µM [rising, single point].
With `CN1CCc2ccccc2C1Cc1ccccc1NC(=O)c1sc2ccccc2c1Cl` (stereo not drawn), the cell number change is 104%. The AC50 under setting [1] is 29.1 µM [rising, single point]. Further, the concentration at half-maximal activity (AC50) under setting [2] is 29.1 µM [rising, partial curve].
Take `C=CCn1c(SCC(=O)c2ccc(O)c(O)c2)nnc1-c1cccc(OC)c1`: the cell number change is -4.79%.
The same measure, in the same setting: under `COc1ccc(/C=C\c2onc(C)c2S(=O)(=O)N2CCC(C(=O)NCCC(C)C)CC2)cc1` stands -41.2%.
On to `C1=CCC(/C=N/n2cnnc2)CC1` (stereo not drawn), for which the cell number change is -20.9%. Also, the concentration at half-maximal activity (AC50) under setting [2] was 0.0461 µM [falling, full curve, poor fit].
Turning to `COc1ccc(C2=NOC(C(=O)NCc3ccccc3)C2)cc1` (stereo not drawn), the cell number change was -20.8%. For the same compound, the AC50 under setting [2] is 7.31 µM [falling, partial curve, poor fit].
For the compound `Cc1cccn2c(=O)c(/C=C(\C#N)C(N)=O)c(N3CCCCCC3)nc12`, under setting [1], the AC50 is 5.8 µM [falling, single point].
Consider `Cc1ccc(-n2nnnc2/C=C\Nc2cc(C)on2)cc1`, for which the cell number change stood at 22.4%. For the same compound, the AC50 under setting [2] is 6.51 µM [rising, partial curve].
As for `CC(SC1=NCCN1S(C)(=O)=O)c1ccccc1` (stereo not drawn), the cell number change was -18.6%. Besides, under setting [2], the concentration at half-maximal activity (AC50) was 0.731 µM [falling, single point].
For `CCN(C(=O)CN1CCN(c2ccccc2F)CC1)c1c(N)n(Cc2ccccc2)c(=O)[nH]c1=O`, the cell number change is 28%. Further, the half-maximal activity concentration (AC50) under setting [1] was 5.17 µM [rising, full curve, poor fit].
